Measurements from patent US7906486B2, “Method of treating or preventing tissue deterioration, injury or damage due to disease of mucosa” (SciClone Pharmaceuticals, Inc., priority 2007, dated 2011).
Values joined by “and” are separate entries in the source; they are usually repeats but may differ in a detail not shown here. Equal entries are not always repeated. Further values from the same series stand in other lists.

Test system: oral mucositis induced by fractionated radiation (eight doses of 7.5 Gy, left buccal cheek pouch)
Experiment: Oral mucositis induced by fractionated radiation in hamsters, mucositis scoring (Example 3, SCI-03)
Type: in vivo, Syrian Golden Hamsters
Parameters: key: 0: Pouch completely healthy. No erythema or vasodilation.; 1: Light to severe erythema and vasodilation. No erosion of mucosa.; 2: Severe erythema and vasodilation. Erosion of superficial aspects of mucosa leaving denuded areas. Decreased stippling of mucosa.; 3: Formation of off-white ulcers in one or more places. Ulcers may have a yellow/gray due to pseudomembrane. Cumulative size of ulcers should equal about ¼ of the pouch. Severe erythema and vasodilation.; 4: Cumulative seize of ulcers should equal about ½ of the pouch. Loss of pliability. Severe erythema and vasodilation.; 5: Virtually all of pouch is ulcerated. Loss of pliability (pouch can only partially be extracted from mouth)
Description: The fractionated radiation model in hamsters, developed by the Principal Investigator, has proven to be an accurate, efficient and cost-effective technique to provide a preliminary evaluation of anti-mucositis compounds. In this model, hamsters receive 8 doses of 7.5 Gy to the left cheek pouch on days 0, 1, 2, 3, […], rather than the single dose of 40 Gy on day 0 that is used in acute radiation studies. The rationale for using this scheduling for the radiation is that it more closely resembles the clinical courses of radiotherapy given to cancer patients. The course of mucositis in this model is well defined and results in peak mucositis scores approximately 14-16 days following radiation. Mortality (generally from the side effects of anesthesia) in the fractionated radiation model is slightly higher than that seen in the acute radiation model and group sizes are increased (to 10 per group) to allow for this.
(§1) Forty (40) male Syrian Golden Hamsters were given eight doses of radiation of 7.5 Gy each directed to their left buccal cheek pouch on days 0, 1, 2, 3, 6, 7, 8 and 9. This was accomplished by anesthetizing the animals and everting the left buccal pouch, while protecting the rest of the animal's bodies with a lead shield. Test materials were given by sub-cutaneous injection once daily as detailed in Table 9. Mucositis was evaluated clinically starting on day 7, and continuing on alternate days until day 35. Test articles were given as outlined Table 9, Groups 1 and 2 were dosed from Day −1 to Day 29, Group 3 was dosed on the days of radiation only, Group 4 was dosed on the days between Day −15 and Day 29 on which no radiation is given (Day −1, Day 4, Day 5 and Day 10 to Day 29).
The effect on mucositis of each drug treatment compared to placebo was assessed according to the following parameters:
On each evaluation day, the number of animals with a blinded mucositis score of ≧3 in each drug treatment group was compared to the control group. Differences were compared on a cumulative basis and statistical significance was determined by chi-square analysis. Efficacy, in this analysis, is defined by a significant reduction in the number of days that a group of animals had ulcerations (scores ≧3) when compared to the control group.
For each evaluation day the scores of the control group were compared to those of the treated groups using non-parametric rank sum analysis. Treatment success was considered as a statistically significant lowering of scores in the treated group on 2 or more days from day 6 to day 28.
as §1, with “daily at 8:00 am” for “daily”, “9. […]” for “9. Mucositis was evaluated clinically starting on day 7, and continuing on alternate days until day 35.”, “2 was” for “2 were”, “radiation only (days 0-3 and days 6-10),” for “radiation only,”, “Day −1” for “Day −15”, “Day 4 to” for “Day 4,”
Radiation was generated with a Philips 160 kVp (kilovolt potential) (18.75-ma) X-ray source at a focal distance of 30 cm, with a 3.0 mm hardened Al filtration system. Irradiation was targeted to the left buccal pouch mucosa at a rate of 3.32 Gy/minute. […] Using this calibration, the energy received by each animal at each radiation dose was approximately 64.5 nC (nanoCoulombs) at each time point. Prior to irradiation, animals were anesthetized with an intraperitoneal injection of ketamine (160 mg/kg) and xylazine (8 mg/kg). The left buccal pouch was everted, fixed and isolated using a lead shield.
The mucositis score, weight change and survival were measured throughout the study as described above. […]

In the case of `N[C@H](CCC(=O)N[C@@H](Cc1c[nH]c2ccccc12)C(=O)O)C(=O)O` [SCV-07, γ-D-glutamyl-L-tryptophan], the Mucositis score (Group 2, day 13, individual animals (two score lines each)) is reported as 1, the Mucositis score (Group 2, day 29, individual animals (two score lines each)) is reported as 0 and the Mucositis score (Group 2, day 33, individual animals (two score lines each)) is reported as 0. The Mucositis score (Group 3, day 7, individual animals (two score lines each)) was 0, the Mucositis score (Group 3, day 9, individual animals (two score lines each)) was 1 (12×) and 0 (6×) and the Mucositis score (Group 3, day 11, individual animals (two score lines each)) was 1. For the same molecule, the Mucositis score (Group 3, day 15, individual animals (two score lines each)) was 3, the Mucositis score (Group 3, day 17, individual animals (two score lines each)) was 3 and the Mucositis score (Group 3, day 19, individual animals (two score lines each)) was 3. For the same molecule, the Mucositis score (Group 3, day 21, individual animals (two score lines each)) was 3, the Mucositis score (Group 3, day 23, individual animals (two score lines each)) was 3 and the Mucositis score (Group 3, day 25, individual animals (two score lines each)) was 1. The Mucositis score (Group 3, day 29, individual animals (two score lines each)) was 1 (16×) and 0 (4×), the Mucositis score (Group 3, day 31, individual animals (two score lines each)) was 0 (8×) and 1 (8×) and the Mucositis score (Group 3, day 33, individual animals (two score lines each)) was 1 (16×) and 0 (4×). For the same molecule, the Mucositis score (Group 3, day 35, individual animals (two score lines each)) was 1 (14×) and 0 (6×), the Mucositis score (Group 4, day 7, individual animals (two score lines each)) was 0 and the Mucositis score (Group 4, day 9, individual animals (two score lines each)) was 0 (2×) and 1 (18×). It also gave a Mucositis score (Group 4, day 11, individual animals (two score lines each)) of 1, a Mucositis score (Group 4, day 13, individual animals (two score lines each)) of 1 and a Mucositis score (Group 4, day 15, individual animals (two score lines each)) of 3. It also gave a Mucositis score (Group 4, day 17, individual animals (two score lines each)) of 3, a Mucositis score (Group 4, day 19, individual animals (two score lines each)) of 3 and a Mucositis score (Group 4, day 21, individual animals (two score lines each)) of 3. The Mucositis score (Group 4, day 23, individual animals (two score lines each)) was 3, the Mucositis score (Group 4, day 25, individual animals (two score lines each)) was 3 and the Mucositis score (Group 4, day 27, individual animals (two score lines each)) was 3. For the same molecule, the Mucositis score (Group 4, day 29, individual animals (two score lines each)) was 1 (12×) and 0 (6×), the Mucositis score (Group 4, day 31, individual animals (two score lines each)) was 0 (8×) and 1 (10×) and the Mucositis score (Group 4, day 33, individual animals (two score lines each)) was 1 (14×) and 0 (4×). For the same molecule, the Mucositis score (Group 4, day 35, individual animals (two score lines each)) was 0 (6×) and 1 (14×).
